Data as given in PubChem BioAssay AID1508597 (Cure First, 2020)

- Test: 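Knock-downs altering ovarian cancer cell survival with or without PARP inhibitor rucaparib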 (primary screen)
- System: human ovarian carcinoma lines grown from tumours: OCI-P5x (papillary serous) and OCI-C5x (clear cell)
- Knock-down reagent: siRNA pool against human genes, 1.25 pmol siRNA per well
- Duration: 72 h or 96 h, depending on the cell culture
- Conditions: rucaparib 20 µM (about IC30) or vehicle, present until read-out
- Rucaparib or vehicle: Vehicle
- Cell line: OCI-P5x (serous)
- Measurement: 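Luminescent ATP-based viability assay read 72 or 96 h after transfection, depending on culture, given as normalised percent viability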
- Reading the numbers: viability, normalised: higher = more viable cells remaining
- Active means: 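a well counts as a hit if its normalised viability is under 80 percent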
- Meaning of the calls: active = viability under 80%; inactive = viability 80% or more
Shown is a random part of the about 2,100 reagents, under one of the conditions tested. 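Calls flag viability under 80% in either arm, not effects specific to rucaparib; the reference for percent is not stated.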 Entries without a mark were called inactive. No sequences are given here. The record does not give: the 100% reference.

Gene,technical replicate,"viability, normalised (%)"
TONSL,1,67.1 (active)
TONSL,2,68.6 (active)
TONSL,3,56.2 (active)
PNKP,1,81
PNKP,2,94.6
PNKP,3,80
RIF1,1,71.5 (active)
RIF1,2,78.2 (active)
RIF1,3,74.1 (active)
MED17,1,42.7 (active)
MED17,2,60.6 (active)
MED17,3,50.3 (active)
CHMP5,1,42.3 (active)
CHMP5,2,63.7 (active)
CHMP5,3,57.8 (active)
SETD2,1,62.4 (active)
SETD2,2,72.3 (active)
SETD2,3,83.7
PIN1,1,72.9 (active)
PIN1,2,60 (active)
PIN1,3,76 (active)
PCNA,1,57.4 (active)
PCNA,2,53.5 (active)
PCNA,3,68.5 (active)
GRK7,1,73.7 (active)
GRK7,2,65.1 (active)
GRK7,3,72.8 (active)
USP3,1,58.2 (active)
USP3,2,54 (active)
USP3,3,45.5 (active)
AK2,1,91.5
AK2,2,78.5 (active)
AK2,3,83.2
CSF1R,1,93.6
CSF1R,2,88.1
CSF1R,3,90.4
SLIT3,1,71.7 (active)
SLIT3,2,70 (active)
SLIT3,3,91.7
VRK1,1,92.5
VRK1,2,89.8
VRK1,3,90.7
SMPD3,1,68.8 (active)
SMPD3,2,74.4 (active)
SMPD3,3,35.9 (active)
TCF3,1,57.3 (active)
TCF3,2,75.9 (active)
TCF3,3,73.4 (active)
TAF9,1,92.7
TAF9,2,83
TAF9,3,83.8
CD79A,1,51.1 (active)
CD79A,2,49.2 (active)
CD79A,3,55 (active)
CLDN18,1,66.9 (active)
CLDN18,2,78.8 (active)
CLDN18,3,75 (active)
NTRK2,1,99.5
NTRK2,2,74.1 (active)
NTRK2,3,111
EPHA4,1,85.7
EPHA4,2,92.3
EPHA4,3,91.4
CAMK2A,1,88.2
CAMK2A,2,64 (active)
CAMK2A,3,96.7
RALB,1,62.5 (active)
RALB,2,57.6 (active)
RALB,3,52.2 (active)
DDX54,1,59.9 (active)
DDX54,2,76.5 (active)
DDX54,3,43.9 (active)
ASXL1,1,70.6 (active)
ASXL1,2,99.3
ASXL1,3,78.7 (active)

8 entries already listed, arranged by “viability, normalised (%)”, high to low:
Gene,technical replicate,"viability, normalised (%)"
TAF9,1,92.7
TAF9,2,83
TCF3,2,75.9 (active)
SMPD3,2,74.4 (active)
TCF3,3,73.4 (active)
SMPD3,1,68.8 (active)
TCF3,1,57.3 (active)
SMPD3,3,35.9 (active)
